Measured values from the supplement of paper PMC10849652.
Some of the results follow.

By UniProt entry, the sequences of proteins in these tests, tags left out. Where a name states a change or a piece, a line headed by the entry shows the natural chain unless it says otherwise.
UniProt Q9NXD2: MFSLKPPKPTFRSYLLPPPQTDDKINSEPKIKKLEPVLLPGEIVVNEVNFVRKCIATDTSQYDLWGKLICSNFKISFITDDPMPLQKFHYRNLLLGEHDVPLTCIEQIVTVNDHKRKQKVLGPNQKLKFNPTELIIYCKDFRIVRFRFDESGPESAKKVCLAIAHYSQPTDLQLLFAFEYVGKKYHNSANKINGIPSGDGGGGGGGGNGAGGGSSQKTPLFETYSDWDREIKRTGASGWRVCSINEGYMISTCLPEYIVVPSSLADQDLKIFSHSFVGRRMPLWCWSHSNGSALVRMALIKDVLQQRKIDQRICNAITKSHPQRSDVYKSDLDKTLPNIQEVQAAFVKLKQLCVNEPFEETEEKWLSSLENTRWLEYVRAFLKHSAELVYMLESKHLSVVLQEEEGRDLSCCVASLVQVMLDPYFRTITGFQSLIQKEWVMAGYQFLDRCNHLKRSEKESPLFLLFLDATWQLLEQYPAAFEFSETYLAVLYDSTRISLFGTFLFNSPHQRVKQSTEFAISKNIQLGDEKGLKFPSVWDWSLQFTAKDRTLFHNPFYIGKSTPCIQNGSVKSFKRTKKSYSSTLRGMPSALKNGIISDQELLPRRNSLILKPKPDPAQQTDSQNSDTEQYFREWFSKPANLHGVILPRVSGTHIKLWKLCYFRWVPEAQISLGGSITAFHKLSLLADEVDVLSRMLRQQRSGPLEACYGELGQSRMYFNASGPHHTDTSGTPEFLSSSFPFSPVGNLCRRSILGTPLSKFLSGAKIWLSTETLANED
UniProt P55157: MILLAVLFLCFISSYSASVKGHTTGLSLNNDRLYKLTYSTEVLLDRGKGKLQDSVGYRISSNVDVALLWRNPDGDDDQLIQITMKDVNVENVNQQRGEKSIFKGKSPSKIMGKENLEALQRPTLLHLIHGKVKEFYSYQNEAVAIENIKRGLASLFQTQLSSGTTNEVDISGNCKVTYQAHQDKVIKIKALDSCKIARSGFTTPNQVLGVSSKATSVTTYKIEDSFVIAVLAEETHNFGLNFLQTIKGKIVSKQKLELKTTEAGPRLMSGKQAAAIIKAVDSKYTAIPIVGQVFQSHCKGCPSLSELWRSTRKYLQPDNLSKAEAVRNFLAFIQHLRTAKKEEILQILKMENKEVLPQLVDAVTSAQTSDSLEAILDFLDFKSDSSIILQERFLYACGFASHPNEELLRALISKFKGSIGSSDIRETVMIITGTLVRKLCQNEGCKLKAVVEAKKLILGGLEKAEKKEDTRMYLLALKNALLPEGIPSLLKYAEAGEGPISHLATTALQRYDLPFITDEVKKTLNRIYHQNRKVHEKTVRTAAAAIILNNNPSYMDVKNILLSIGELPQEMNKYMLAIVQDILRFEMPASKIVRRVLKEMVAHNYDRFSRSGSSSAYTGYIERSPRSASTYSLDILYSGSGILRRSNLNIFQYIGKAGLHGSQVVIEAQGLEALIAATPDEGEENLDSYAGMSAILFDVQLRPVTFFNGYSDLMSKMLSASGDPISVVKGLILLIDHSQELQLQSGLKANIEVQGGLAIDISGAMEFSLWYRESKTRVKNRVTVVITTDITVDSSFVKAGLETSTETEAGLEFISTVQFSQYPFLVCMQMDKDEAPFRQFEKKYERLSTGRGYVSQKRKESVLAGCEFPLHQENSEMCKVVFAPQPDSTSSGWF
UniProt Q8N5Y2: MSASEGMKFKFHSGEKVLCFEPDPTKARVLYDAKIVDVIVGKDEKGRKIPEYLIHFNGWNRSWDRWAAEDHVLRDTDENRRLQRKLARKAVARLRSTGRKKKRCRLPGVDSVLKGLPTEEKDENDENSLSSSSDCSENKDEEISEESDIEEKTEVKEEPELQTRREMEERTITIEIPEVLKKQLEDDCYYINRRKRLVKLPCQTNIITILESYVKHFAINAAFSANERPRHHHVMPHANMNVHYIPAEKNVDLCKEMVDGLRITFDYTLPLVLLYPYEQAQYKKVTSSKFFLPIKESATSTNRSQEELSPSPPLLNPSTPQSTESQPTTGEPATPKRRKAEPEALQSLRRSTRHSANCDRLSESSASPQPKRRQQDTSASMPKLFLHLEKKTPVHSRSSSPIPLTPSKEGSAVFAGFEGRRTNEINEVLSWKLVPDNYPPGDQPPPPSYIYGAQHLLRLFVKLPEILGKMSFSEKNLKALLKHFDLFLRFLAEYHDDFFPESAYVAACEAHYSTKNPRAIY
UniProt P13640: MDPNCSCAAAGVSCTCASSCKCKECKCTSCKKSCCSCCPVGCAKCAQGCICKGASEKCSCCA
UniProt O43196: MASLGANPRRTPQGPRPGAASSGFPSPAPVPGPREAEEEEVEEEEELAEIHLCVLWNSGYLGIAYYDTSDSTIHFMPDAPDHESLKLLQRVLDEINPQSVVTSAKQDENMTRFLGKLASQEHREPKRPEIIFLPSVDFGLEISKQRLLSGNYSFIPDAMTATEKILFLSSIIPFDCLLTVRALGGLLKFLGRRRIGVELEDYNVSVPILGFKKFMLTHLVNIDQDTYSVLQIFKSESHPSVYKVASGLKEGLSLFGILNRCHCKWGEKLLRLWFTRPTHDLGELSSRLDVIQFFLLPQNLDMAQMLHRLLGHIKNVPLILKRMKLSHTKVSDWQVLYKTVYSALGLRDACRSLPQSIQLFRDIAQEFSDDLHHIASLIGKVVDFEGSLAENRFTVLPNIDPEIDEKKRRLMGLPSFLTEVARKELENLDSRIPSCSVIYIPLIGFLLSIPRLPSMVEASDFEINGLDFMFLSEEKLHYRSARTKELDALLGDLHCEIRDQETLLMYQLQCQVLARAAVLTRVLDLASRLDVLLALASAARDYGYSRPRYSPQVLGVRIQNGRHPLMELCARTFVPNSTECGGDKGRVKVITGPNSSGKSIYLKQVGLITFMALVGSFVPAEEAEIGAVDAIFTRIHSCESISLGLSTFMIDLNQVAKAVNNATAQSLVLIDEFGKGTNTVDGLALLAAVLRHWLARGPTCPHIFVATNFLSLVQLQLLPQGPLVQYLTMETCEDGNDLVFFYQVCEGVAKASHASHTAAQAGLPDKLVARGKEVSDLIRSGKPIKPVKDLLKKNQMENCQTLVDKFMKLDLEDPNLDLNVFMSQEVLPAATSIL
UniProt Q9BT17: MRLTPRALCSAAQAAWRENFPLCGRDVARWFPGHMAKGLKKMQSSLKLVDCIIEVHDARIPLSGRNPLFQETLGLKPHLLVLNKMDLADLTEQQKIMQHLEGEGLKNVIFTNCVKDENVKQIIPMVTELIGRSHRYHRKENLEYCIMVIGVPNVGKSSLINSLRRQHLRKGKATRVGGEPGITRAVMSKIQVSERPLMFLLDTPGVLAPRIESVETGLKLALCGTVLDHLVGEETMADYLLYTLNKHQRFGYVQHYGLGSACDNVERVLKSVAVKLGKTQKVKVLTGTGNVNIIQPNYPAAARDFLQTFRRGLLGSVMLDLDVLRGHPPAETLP
UniProt Q96DP5: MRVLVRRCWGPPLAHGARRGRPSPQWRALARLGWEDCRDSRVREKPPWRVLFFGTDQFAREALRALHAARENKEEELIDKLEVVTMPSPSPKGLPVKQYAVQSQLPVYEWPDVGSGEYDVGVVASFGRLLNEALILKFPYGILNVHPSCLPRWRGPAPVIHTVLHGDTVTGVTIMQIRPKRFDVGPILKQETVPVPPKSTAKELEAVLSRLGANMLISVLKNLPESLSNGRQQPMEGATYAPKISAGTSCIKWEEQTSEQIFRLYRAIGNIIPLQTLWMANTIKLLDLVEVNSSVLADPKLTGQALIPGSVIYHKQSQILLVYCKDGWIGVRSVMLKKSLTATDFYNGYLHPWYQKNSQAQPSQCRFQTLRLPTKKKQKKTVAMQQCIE
UniProt Q9NVV4: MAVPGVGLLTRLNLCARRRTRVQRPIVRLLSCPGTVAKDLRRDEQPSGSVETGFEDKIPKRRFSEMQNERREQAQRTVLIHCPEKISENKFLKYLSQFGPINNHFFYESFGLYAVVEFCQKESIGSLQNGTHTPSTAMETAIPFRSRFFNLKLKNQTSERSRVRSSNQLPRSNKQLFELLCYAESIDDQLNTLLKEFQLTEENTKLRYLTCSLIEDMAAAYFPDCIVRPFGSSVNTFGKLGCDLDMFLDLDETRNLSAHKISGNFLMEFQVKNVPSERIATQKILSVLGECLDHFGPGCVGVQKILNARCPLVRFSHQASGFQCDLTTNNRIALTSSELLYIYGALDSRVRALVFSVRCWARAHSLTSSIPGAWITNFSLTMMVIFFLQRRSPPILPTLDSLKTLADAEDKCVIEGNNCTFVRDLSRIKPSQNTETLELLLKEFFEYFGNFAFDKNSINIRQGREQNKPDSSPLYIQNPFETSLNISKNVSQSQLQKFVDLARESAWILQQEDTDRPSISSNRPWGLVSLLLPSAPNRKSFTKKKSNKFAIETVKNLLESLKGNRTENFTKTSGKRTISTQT
UniProt Q96HJ5: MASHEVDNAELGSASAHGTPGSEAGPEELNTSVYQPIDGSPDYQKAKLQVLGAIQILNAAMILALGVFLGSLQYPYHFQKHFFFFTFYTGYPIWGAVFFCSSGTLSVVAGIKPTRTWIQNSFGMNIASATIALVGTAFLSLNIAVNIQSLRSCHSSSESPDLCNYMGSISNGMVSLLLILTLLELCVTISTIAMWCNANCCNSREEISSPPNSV

Key:
Assay in all cases: log2 fold change, soluble protein after heating vs DMSO (PISA); higher = thermal stabilisation; K562 lysate, 10 uM; active = over 0.2 and 3.5 SD of the protein, either way, in both replicates (recomputed)
erlotinib = compound: C#Cc1cccc(Nc2ncnc3cc(OCCOC)c(OCCOC)cc23)c1 [erlotinib]
Method in brief: (§1)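 Following dounce homogenisation of K562 pellets in PBS pH 7.4 with 1 mM MgCl2, crude extract at 1 mg/mL protein was incubated for 30 min with 10 μM compound. Aliquots were then heated for 3 min over 48°C-58°C and pooled, NP-40 was added to 0.5% at 4°C, and soluble protein was recovered as the supernatant at 21,000xg for 90 min. Channel-sum-equalised TMTpro 16plex LC-MS/MS quantified this protein. Each value, from duplicates, is a log-two fold change in thermal stability relative to solvent controls.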

[1] = compound: C1=CC(=CC=C1C2=NC3=C(N2)C=C(C=C3)C(=O)N)OC4=CC=C(C=C4)Cl
Method in brief: as §1

[2] = compound: C1=CC=C(C=C1)C2=NC(=C(N2)C3=CC=NC=C3)C4=CC(=C(C=C4)Cl)O
Method in brief: as §1

IRAK-1-4 Inhibitor I = compound: C1COCCN1CCN2C3=CC=CC=C3N=C2NC(=O)C4=CC(=CC=C4)[N+](=O)[O-] [IRAK-1-4 Inhibitor I]
Method in brief: as §1

[3] = compound: CC(=O)c1cnc2ccc(-c3cc(Cl)c(O)c(Cl)c3)nc2c1N[C@H]1CC[C@H](CN(C)C)CC1
Method in brief: as §1

ralimetinib = compound: CC(C)(C)Cn1c(N)nc2ccc(-c3[nH]c(C(C)(C)C)nc3-c3ccc(F)cc3)nc21 [ralimetinib]
Method in brief: as §1

[4] = compound: CC(C)(O)CC(=O)NCCn1ccc2ncnc(Nc3ccc(Oc4cccc(C(F)(F)F)c4)c(Cl)c3)c21
Method in brief: as §1

[5] = compound: CC(C)C1=C2N=C(C=C(N2N=C1)NCC3=CC=CC=C3)NCCCCCCN
Method in brief: as §1

[6] = compound: CC1=C(C(CC(=O)N1)C2=CC=C(C=C2)C(F)(F)F)C(=O)NC3=C(C=C4C(=C3)C=NN4)F
Method in brief: as §1

[7] = compound: CC1=C(C2=C(C=C1)C(=O)C3=CC=CC=C3N2CCCN)C
Method in brief: as §1

[8] = compound: CC1=C(C=C(C=C1)NC(=O)C2=CC(=CC=C2)C(C)(C)C#N)NC3=CC4=C(C=C3)N=CN(C4=O)C
Method in brief: as §1

[9] = compound: CC1=C(C=C(C=C1)NC(=O)C2=CC(=CC=C2)N(C)C)NC(=O)C3=CC=C(C=C3)O
Method in brief: as §1

[10] = compound: CC1=CC=C(C=C1)SC2=C3C=C(SC3=CN=C2)C(=O)N
Method in brief: as §1

[11] = compound: C1=CC2=NC=CN=C2C=C1/C=C/3\C(=O)NC(=O)S3
Method in brief: as §1

ibrutinib = compound: C=CC(=O)N1CCC[C@@H](n2nc(-c3ccc(Oc4ccccc4)cc3)c3c(N)ncnc32)C1 [ibrutinib]
Method in brief: as §1

[12] = compound: C/C(=N\NC(=O)C1=CC(=CC=C1)S(=O)(=O)N2CCOCC2)/C3=C(C=CC(=C3)Cl)O
Method in brief: as §1

[13] = compound: C1=CC2=C(C=CC(=C2)/C=C\3/C(=O)NC(=NCC4=CC=CS4)S3)N=C1
Method in brief: as §1

[14] = compound: C1=CC=C2C(=C1)C3=NNC4=CC=CC(=C43)C2=O
Method in brief: as §1

[15] = compound: C1CCN(C1)C(=O)NC2=CC=CC(=C2)NC3=NC=C(C(=N3)NCCC4=CN=CN4)Br
Method in brief: as §1

[16] = compound: C1CN(CCC1(CC2=CC=C(C=C2)Cl)N)C3=NC=NC4=C3C=CN4
Method in brief: as §1

Measured: log2 fold change

MTMR10 (UniProt Q9NXD2)
inactive: erlotinib -0.099 | [1] 0.004 | [2] 0.154 | IRAK-1-4 Inhibitor I 0.082 | [3] -0.007 | ralimetinib 0.078 | [4] -0.021 | [5] 0.114 | [6] -0.184 | [7] 0.236 | [8] 0.021 | [9] 0.312 | [10] -0.033

MTTP (UniProt P55157)
inactive: [11] -0.107 | ibrutinib -0.269

MSL3 (UniProt Q8N5Y2)
inactive: erlotinib 0.003 | [12] 0.019 | [1] 0.004 | [13] -0.01 | [2] 0.02 | [14] -0.038 | [15] 0.03 | [16] 0.057 | IRAK-1-4 Inhibitor I -0.012 | ralimetinib 0.084 | [4] -0.099 | [5] -0.066 | [6] 0.104 | [7] -0.175 | [8] 0.039 | [9] -0.005

MT1G (UniProt P13640)
inactive: erlotinib 0.049 | [12] -0.009 | [1] 0.019 | [13] 0.054 | [11] 0.02 | [14] 0.074 | [15] -0.185 | [16] 0.147 | ibrutinib -0.002 | [3] -0.017 | [5] -0.208 | [6] -0.032 | [7] 0.045 | [8] 0.16 | [10] 0.013

Two consecutive records out of the list so far, quoted:
MTTP (UniProt P55157)
inactive: [11] -0.107 | ibrutinib -0.269

MSL3 (UniProt Q8N5Y2)
inactive: erlotinib 0.003 | [12] 0.019 | [1] 0.004 | [13] -0.01 | [2] 0.02 | [14] -0.038 | [15] 0.03 | [16] 0.057 | IRAK-1-4 Inhibitor I -0.012 | ralimetinib 0.084 | [4] -0.099 | [5] -0.066 | [6] 0.104 | [7] -0.175 | [8] 0.039 | [9] -0.005

The listing continues:

MUC5AC (UniProt P98088)
inactive: [2] 0.015 | IRAK-1-4 Inhibitor I -0.074 | ralimetinib -0.067 | [4] 0.06 | [6] 1.44 | [9] 0.041

MRPS2 (UniProt Q9Y399)
inactive: erlotinib -0.072 | [12] 0.025 | [1] -0.023 | [13] 0.038 | [2] 0.023 | [14] 0.03 | [15] 0.03 | [16] -0.031 | IRAK-1-4 Inhibitor I -0.008 | [3] 0.013 | ralimetinib 0.027 | [4] 0.051 | [5] 0.007 | [6] 0 | [7] -0.001 | [8] 0.004 | [9] 0.025 | [10] 0.029

MSH5 isoform 3 (UniProt O43196)
inactive: [2] 1.15 | [15] 0.935 | [16] 0.508 | IRAK-1-4 Inhibitor I 0.577 | [3] 0.024 | ralimetinib 0.243 | [4] -0.056 | [7] -0.192 | [8] 0.034 | [9] -0.275 | [10] -0.026

MRPL30 isoform 2 (UniProt Q8TCC3)
inactive: erlotinib -0.004 | [1] -0.01 | [11] -0.037 | [2] -0.03 | [15] 0.067 | [16] 0.015 | IRAK-1-4 Inhibitor I 0.015 | ibrutinib 0.01 | [3] 0.043 | ralimetinib 0.04 | [4] -0.084 | [5] 0 | [6] 0 | [7] -0.037 | [8] 0.02 | [9] -0.006 | [10] 0.087

MTG1 (UniProt Q9BT17)
inactive: [6] -0.297

MTFMT (UniProt Q96DP5)
inactive: erlotinib 0 | [1] 0.08 | [3] -0.003 | [5] -0.072 | [6] 0.209 | [7] -0.215 | [8] -0.022 | [10] -0.343

MRPL27 (UniProt Q9P0M9)
inactive: erlotinib -0.072 | [1] 0.068 | [11] -0.019 | [2] 0.056 | [15] 0.023 | [16] 0.019 | IRAK-1-4 Inhibitor I -0.044 | ibrutinib -0.046 | [3] -0.057 | ralimetinib 0.023 | [4] -0.025 | [5] 0.106 | [6] 0.002 | [7] -0.195 | [8] -0.028 | [9] 0.1 | [10] 0.079

MTURN (UniProt Q8N3F0)
inactive: [2] 0.01 | [15] 0.104 | [16] -0.025 | IRAK-1-4 Inhibitor I -0.011 | ralimetinib 0.001 | [4] -0.022 | [7] 0.043 | [8] 0.026 | [9] -0.013

MRPS14 (UniProt O60783)
inactive: [12] -0.061 | [13] 0.305 | [11] 0 | [2] -0.057 | [14] -0.007 | [15] 0.014 | [16] 0.034 | IRAK-1-4 Inhibitor I -0.084 | ibrutinib -0.088 | [3] 0.056 | ralimetinib 0.048 | [4] -0.049 | [6] 0.023 | [8] 0.098 | [9] 0.211 | [10] -0.015

MTPAP (UniProt Q9NVV4)
inactive: erlotinib -0.013 | [12] -0.001 | [1] 0.083 | [13] -0.022 | [2] -0.018 | [14] -0.039 | [15] 0.023 | [16] 0.096 | IRAK-1-4 Inhibitor I -0.047 | [3] 0.044 | ralimetinib -0.003 | [4] 0.036 | [5] 0.04 | [6] 0.085 | [7] 0.031 | [8] 0.002 | [9] 0.014 | [10] 0.023

MS4A3 (UniProt Q96HJ5)
inactive: [12] 0.169 | [13] -0.038 | [14] 0.042 | [15] 0.049 | [16] 0.026 | [3] -0.063 | [8] 0.214 | [10] -0.037
